# Results reported in PubChem BioAssay AID504327 (National Center for Advancing Translational Sciences (NCATS), 2011).
# By UniProt entry, the sequences of proteins in these tests, tags left out.
# UniProt Q92830, whole entry: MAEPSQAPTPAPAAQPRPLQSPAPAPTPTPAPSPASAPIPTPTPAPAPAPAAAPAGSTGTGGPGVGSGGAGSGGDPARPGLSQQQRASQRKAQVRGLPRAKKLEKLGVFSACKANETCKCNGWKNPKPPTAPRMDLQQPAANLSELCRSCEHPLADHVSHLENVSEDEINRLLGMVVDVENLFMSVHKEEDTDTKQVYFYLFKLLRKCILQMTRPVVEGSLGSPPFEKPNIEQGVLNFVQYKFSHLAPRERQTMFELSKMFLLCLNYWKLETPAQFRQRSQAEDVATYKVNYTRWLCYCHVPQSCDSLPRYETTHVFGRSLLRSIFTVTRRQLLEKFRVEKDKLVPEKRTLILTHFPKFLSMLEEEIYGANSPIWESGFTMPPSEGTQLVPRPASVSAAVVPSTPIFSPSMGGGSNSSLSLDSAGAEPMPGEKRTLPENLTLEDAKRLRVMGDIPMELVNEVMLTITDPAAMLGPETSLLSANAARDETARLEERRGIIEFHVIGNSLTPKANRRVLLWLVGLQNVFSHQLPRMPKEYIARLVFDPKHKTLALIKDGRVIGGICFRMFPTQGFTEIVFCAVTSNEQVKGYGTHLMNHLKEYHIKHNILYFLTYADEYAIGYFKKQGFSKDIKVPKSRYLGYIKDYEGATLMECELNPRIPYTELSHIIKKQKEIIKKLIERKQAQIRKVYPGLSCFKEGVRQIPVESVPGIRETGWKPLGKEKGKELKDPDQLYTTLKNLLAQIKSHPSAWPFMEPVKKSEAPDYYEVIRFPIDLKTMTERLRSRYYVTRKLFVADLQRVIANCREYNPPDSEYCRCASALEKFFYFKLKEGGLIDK
# In all, about 390,000 compounds went through this assay and about 820 (0.21%) were called active. The source calls these results inconclusive, neither active nor inactive. Calls follow the shape of the dose curve; as a rule, active = well fitted inhibition curve with a large enough effect; inconclusive = small, poorly fitted or top-dose-only effect, or another doubt; inactive = no such curve, though single readings can be large or run the other way. Some tests of the compounds listed are not included; inactive here does not mean inactive elsewhere.
# Biological target: Histone acetyltransferase KAT2A (Homo sapiens) (UniProt Q92830)
# Assay: qHTS Assay for Inhibitors of GCN5L2
# Settings: GCN5L2 HAT assay, ThioGlo1 CoA-SH fluorescence
# Potency is read from the fitted curve at half-maximal effect.
row,Structure (SMILES),Potency
1,COc1cc(C(=O)NCC2(N(C)C)CCCCC2)c([N+](=O)[O-])cc1OC,inconclusive: 2 µM
2,O=C(OC1CN2CCC1CC2)C(CO)(c1ccccc1)c1ccccc1 (configuration not stated),inconclusive: 7.08 µM
